The supplement of paper PMC4604168 (melanoma cell lines)
The other results are listed elsewhere or left out. Repeats are few or missing, and single values can be far off.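 Imaging used 1,536-well plates; nuclei positive for cleaved PARP by antibody were divided by total DNA-stained nuclei to yield the apoptosis fraction. Doses for screening kept most cells viable, and cell lines differ markedly in resting and induced cleaved-PARP levels.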

Columns and labels:
Assay in all cases: cleaved PARP positive nuclei fraction relative to DMSO control; melanoma cells; higher = more apoptosis
Details in all cases: library dose: low library concentration; 72 h
501Mel = tested on: 501Mel
A101D = tested on: A101D
A2058 = tested on: A2058
A375 = tested on: A375
C32 = tested on: C32
CBRC008 = tested on: CBRC008 (line from a melanoma biopsy)
CBRC013 = tested on: CBRC013 (line from a melanoma biopsy)
CBRC014 = tested on: CBRC014 (line from a melanoma biopsy)
CBRC016 = tested on: CBRC016 (line from a melanoma biopsy)
CBRC017 = tested on: CBRC017 (line from a melanoma biopsy)
COLO792 = tested on: COLO792
COLO800 = tested on: COLO800
COLO829 = tested on: COLO829
G361 = tested on: G361
IPC-298 = tested on: IPC-298
IST-MEL1 = tested on: IST-MEL1
LB2518-MEL = tested on: LB2518-MEL
LOXIMVI = tested on: LOXIMVI
MEL-HO = tested on: MEL-HO
CBRC034 = tested on: CBRC034 (line from a melanoma biopsy)

Structure (SMILES)	cleaved PARP positive nuclei fraction (501Mel) [%]	cleaved PARP positive nuclei fraction (A101D) [%]	cleaved PARP positive nuclei fraction (A2058) [%]	cleaved PARP positive nuclei fraction (A375) [%]	cleaved PARP positive nuclei fraction (C32) [%]	cleaved PARP positive nuclei fraction (CBRC008) [%]	cleaved PARP positive nuclei fraction (CBRC013) [%]	cleaved PARP positive nuclei fraction (CBRC014) [%]	cleaved PARP positive nuclei fraction (CBRC016) [%]	cleaved PARP positive nuclei fraction (CBRC017) [%]	cleaved PARP positive nuclei fraction (COLO792) [%]	cleaved PARP positive nuclei fraction (COLO800) [%]	cleaved PARP positive nuclei fraction (COLO829) [%]	cleaved PARP positive nuclei fraction (G361) [%]	cleaved PARP positive nuclei fraction (IPC-298) [%]	cleaved PARP positive nuclei fraction (IST-MEL1) [%]	cleaved PARP positive nuclei fraction (LB2518-MEL) [%]	cleaved PARP positive nuclei fraction (LOXIMVI) [%]	cleaved PARP positive nuclei fraction (MEL-HO) [%]	cleaved PARP positive nuclei fraction (CBRC034) [%]
Nc1ncn([C@H]2C[C@H](O)[C@@H](CO)O2)c(=O)n1 [decitabine] + NCC(=O)Nc1ccc(-n2nc(C(F)(F)F)cc2-c2ccc3c(ccc4ccccc43)c2)cc1 [OSU03012] (first compound 0.1 µM, partner dose 1 µM)	169	165	108	898	9.86	151	54.2	112	99	89.1	155	92.6	35.9	95.9	136	40.6	198	41.9	41.5	
O=C(O)c1ccc2c(c1)nc(Nc1cccc(Cl)c1)c1ccncc12 + CC(=O)c1c(C)c2cnc(Nc3ccc(N4CCNCC4)cn3)nc2n(C2CCCC2)c1=O [palbociclib] (first compound 0.4 µM, partner dose 0.04 µM)	221	112	101	217	99.5	177		211	213	193	81.4	27.3	54.8	123	108	127	92.2	126	86.1	210
CCCS(=O)(=O)Nc1ccc(F)c(C(=O)c2c[nH]c3ncc(Cl)cc23)c1F + Cn1nnc2c(C(N)=O)ncn2c1=O [temozolomide] (first compound 0.08 µM, partner dose 2 µM)	67.3	84.4	177	476	79.3	43.4		108	74.2	72.2	55.6	70.2	143	169	87.1	89.5	95.7	55.3	143	81.7
C[C@@H](Oc1cc(-c2cnn(C3CCNCC3)c2)cnc1N)c1c(Cl)ccc(F)c1Cl [Crizotinib] + CCCS(=O)(=O)Nc1ccc(F)c(C(=O)c2c[nH]c3ncc(Cl)cc23)c1F [PLX4720] (first compound 0.2 µM, partner dose 0.08 µM)	63.2	92.7	33.8	175	86.1	128		98.5	101	82.6	50.4	80.1	46.3	101	187	61.1	99.1	216	175	43.3
CCCS(=O)(=O)Nc1ccc(F)c(C(=O)c2c[nH]c3ncc(Cl)cc23)c1F + Nc1nc(F)nc2c1ncn2[C@@H]1O[C@H](CO)[C@@H](O)[C@@H]1O [fludarabine] (first compound 0.08 µM, partner dose 0.2 µM)	9200	97.1	21.8	3600	85	48.9		123	91.2	106	67.7	89.8	169	119	178	64.8	95.2	109	39.7	22.5
CNC(=O)c1cc(Oc2ccc(NC(=O)Nc3ccc(Cl)c(C(F)(F)F)c3)cc2)ccn1 [sorafenib] + Cn1c(Nc2ccc(C(F)(F)F)cc2)nc2cc(Oc3ccnc(-c4ncc(C(F)(F)F)[nH]4)c3)ccc21 [CHIR265] (first compound 0.4 µM, partner dose 0.08 µM)	214	105	37.9	197	96.4	55.6		110	136	111	145	90.6	84.3	110	269	245	292	127	172	71.2
CN1CCN(c2ccc3nc(-c4c(N)c5c(F)cccc5[nH]c4=O)[nH]c3c2)CC1 [Dovitinib] + NC(=O)Nc1cc(-c2cccc(F)c2)sc1C(=O)N[C@H]1CCCNC1 [AZD7762] (first compound 0.1 µM, partner dose 0.02 µM)	82.5	111	59.8	193	153	189	124	85.1	84.3	111	67.9	146	96.1	82.4	88	123	68.2	95.5	93.7	
Cn1c(=O)n(-c2ccc(C(C)(C)C#N)cc2)c2c3cc(-c4cnc5ccccc5c4)ccc3ncc21 + O=C(CCCCCCC(=O)Nc1ccccc1)NO [vorinostat] (first compound 0.004 µM, partner dose 0.08 µM)	90.6	20.3	178	96.8	84.6	119	47.9	82.5	135	99.1	118	132	151	44.1	87.9	65.8	75.8	109	155	
Nc1ncn([C@H]2C[C@H](O)[C@@H](CO)O2)c(=O)n1 [decitabine] + COc1cc(Nc2ncc(F)c(Nc3ccc4c(n3)NC(=O)C(C)(C)O4)n2)cc(OC)c1OC [Tamatinib] (first compound 0.1 µM, partner dose 0.4 µM)	90.2	44.8	85	77.9	142	275	108	85.5	56.2	165	368	177	130	34.4	138	185	151	278	86.3	
